From patent US7405317B2, “Phosphate-bearing prodrugs of sulfonyl hydrazines as hypoxia-selective antineoplastic agents” (priority 2004, dated 2008)
Some results were stated once for a whole list of compounds, not compound by compound. At least one compound was matched to its structure with a doubt left.

Experiment: Solubility in water determined visually
Type: physicochemical
Conditions: room temperature, visual

SMILES	solubility in water
CC(OC(=O)N(N(CCCl)S(C)(=O)=O)S(C)(=O)=O)c1ccc([N+](=O)[O-])c(OP(=O)(O)O)c1 (centres unmarked) [KS119W, 1,2-Bis(methylsulfonyl)-2-(2-chloroethyl)hydrazine-carboxylic acid 1-(3-dihydrogenphosphonoxy-4-nitrophenyl)ethyl ester]	more than 400 mg/mL
C[C@@H](OC(=O)N(N(CCCl)S(C)(=O)=O)S(C)(=O)=O)c1ccc([N+](=O)[O-])c(OP(=O)(O)O)c1 [VNP40541]	more than 400 mg/mL
